In article PMC3093612:
Substitutions are numbered along the chain they refer to. No constants are given. Whether binding was seen depends on the method and setting. For some of these results: In cells and extracts the contact can be indirect. Some results given as binding are weak or reduced against the parent protein; the word gives no strength. Where a sequence is shown, tags or fusion partners need not be part of it.

Protein sequences, listed by entry. Tags and fused reporters are not part of them.
UniProt Q04888: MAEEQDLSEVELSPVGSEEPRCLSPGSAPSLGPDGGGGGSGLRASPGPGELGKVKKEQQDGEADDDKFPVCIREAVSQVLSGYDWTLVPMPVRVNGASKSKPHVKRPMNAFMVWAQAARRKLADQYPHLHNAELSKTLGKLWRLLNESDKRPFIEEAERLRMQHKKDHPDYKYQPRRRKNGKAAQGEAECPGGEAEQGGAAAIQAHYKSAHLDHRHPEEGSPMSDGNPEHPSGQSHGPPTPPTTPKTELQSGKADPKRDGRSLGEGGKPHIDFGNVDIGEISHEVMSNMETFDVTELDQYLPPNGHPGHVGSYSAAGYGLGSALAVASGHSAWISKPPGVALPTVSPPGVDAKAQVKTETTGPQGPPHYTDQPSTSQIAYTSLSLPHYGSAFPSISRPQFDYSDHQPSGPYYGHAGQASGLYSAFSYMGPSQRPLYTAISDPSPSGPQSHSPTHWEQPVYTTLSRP

T1: Myc-tagged OLIG2^WT (mouse) (UniProt Q9EQW6)
T1 sequence: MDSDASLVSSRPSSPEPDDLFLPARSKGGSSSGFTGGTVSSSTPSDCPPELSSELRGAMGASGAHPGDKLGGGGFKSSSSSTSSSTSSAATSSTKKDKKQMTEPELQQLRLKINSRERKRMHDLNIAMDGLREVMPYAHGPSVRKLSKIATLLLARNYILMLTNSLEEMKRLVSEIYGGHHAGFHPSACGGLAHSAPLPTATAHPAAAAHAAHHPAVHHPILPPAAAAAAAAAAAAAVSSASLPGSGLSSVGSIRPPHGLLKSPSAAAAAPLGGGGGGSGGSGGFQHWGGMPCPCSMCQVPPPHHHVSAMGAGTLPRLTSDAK

T2: Myc-tagged OLIG2^S147A (mouse) (UniProt Q9EQW6)
T2 sequence: T1 sequence with S147A

T3: Myc-tagged OLIG2^WT (mouse), Q9EQW6
T3 chain: T1 sequence

T4: OLIG2^WT, mammalian two-hybrid fusion (mouse), Q9EQW6
T4 chain: T1 sequence

B1: V5-tagged OLIG2, Q9EQW6 1-323 (protein)
chain: T1 sequence
B2: NKX2.2 (protein, UniProt P42586 1-273)
chain: MSLTNTKTGFSVKDILDLPDTNDEDGSVAEGPEEESEGPEPAKRAGPLGQGALDAVQSLPLKSPFYDSSDNPYTRWLASTEGLQYSLHGLAASAPPQDSSSKSPEPSADESPDNDKETQGGGGDAGKKRKRRVLFSKAQTYELERRFRQQRYLSAPEREHLASLIRLTPTQVKIWFQNHRYKMKRARAEKGMEVTPLPSPRRVAVPVLVRDGKPCHALKAQDLAAATFQAGIPFSAYSAQSLQHMQYNAQYSSASTPQYPTAHPLVQAQQWTW
B3: MASH1 (protein, UniProt Q02067 1-231)
chain: MESSGKMESGAGQQPQPPQPFLPPAACFFATAAAAAAAAAAAAQSAQQQQPQAPPQQAPQLSPVADSQPSGGGHKSAAKQVKRQRSSSPELMRCKRRLNFSGFGYSLPQQQPAAVARRNERERNRVKLVNLGFATLREHVPNGAANKKMSKVETLRSAVEYIRALQQLLDEHDAVSAAFQAGVLSPTISPNYSNDLNSMAGSPVSSYSSDEGSYDPLSPEEQELLDFTNWF
B4: OLIG2^WT, mammalian two-hybrid fusion, Q9EQW6 1-323 (protein)
chain: T1 sequence
B5: V5-tagged OLIG1 (protein, UniProt Q9JKN5 1-260)
chain: MYYAISQARVNAAPATMLRPQRPGDVQLGASLYELVGYRQPPISSSSSSSSSTASLLPKPAREKAEAPLAEPRGPAPESGGARADAKEEQQQQQLRRKINSRERKRMQDLNLAMDALREVILPYSAAHCQGAPGRKLSKIATLLLARNYILLLGSSLQELRRALGDGAGPAAPRLLLAGLPLLAAAPGSVLLAPGAVGPPETLRPTKYLSLALDEPPCGQFSLPAGGAGSPGLCSCAVCKFPHLVPAGLGLAAVQAQFSK

Experiments:
[1] = molecular target: T1, Myc-tagged OLIG2^WT (mouse); experiment: co-IP; Cos-7 cells cotransfected; lysate (50 mM Tris-HCl pH 7.5, 150 mM NaCl, 1% NP-40, 0.5% deoxycholate) treated with DNase1; IP with rabbit anti-Myc on protein G beads at 4°C, washes incl. 500 mM NaCl; WB with anti-V5
[2] = molecular target: T2, Myc-tagged OLIG2^S147A (mouse); experiment: as above
[3] = molecular target: T3, Myc-tagged OLIG2^WT (mouse), Q9EQW6; experiment: as above; conditions: remark: other sources report otherwise
[4] = molecular target: T4, OLIG2^WT, mammalian two-hybrid fusion …; experiment: two-hybrid; mammalian two-hybrid (CheckMate System, Promega) in Cos-7 cells, firefly luciferase normalised to Renilla; also with cotransfected catalytic subunit of PKA or dnPKA; conditions: remark: other sources report otherwise

| Molecule | binding [1] | binding [2] | binding [3] | binding [4] |
| --- | --- | --- | --- | --- |
| V5-tagged SOX10 (from UniProt Q04888 1-466) | binds | binds | – | – |
| B1 | – | – | binds | – |
| B2 | binds | binds | – | – |
| B3 | binds | binds | – | – |
| B4 | – | – | – | binds |
| B5 | binds | binds | – | – |
